Measured values from the supplement of paper PMC7661543.
Differences between knockout arms are mostly noise.

System: BT-20
Assay: relative cell number vs DMSO control (72 h) (% of DMSO); higher = less growth inhibition (more cells)
Procedure: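 QMAP-Seq: a pool of 5 breast cancer cell lines (ZR-75-1, SKBR3, HCC-38, MDA-MB-231, BT-20), each carrying 12 doxycycline-inducible Cas9 sgRNA perturbations (11 knockouts plus non-targeting sgNT), was treated with compounds for 72 h at four 10-fold doses (10 nM-10 uM or 1 nM-1 uM range). Barcodes were amplified and sequenced, and cell number was interpolated from 293T spike-in standard curves. The result is expressed as % of the median of DMSO wells. Two biological replicates.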

N[C@@H](CC(=O)N1CCn2c(nnc2C(F)(F)F)C1)Cc1cc(F)c(F)cc1F [Sitagliptin]
Settings | relative cell number
sgRNA knockout: sgATF3, 10 nM | 110
sgRNA knockout: sgATF3, 100 nM | 103
sgRNA knockout: sgATF3, 1000 nM | 96.2
sgRNA knockout: sgATF3, 10000 nM | 101
sgRNA knockout: sgATF4, 10 nM | 92.8
sgRNA knockout: sgATF4, 100 nM | 113
sgRNA knockout: sgATF4, 1000 nM | 109.3
sgRNA knockout: sgATF4, 10000 nM | 108
sgRNA knockout: sgATF6, 10 nM | 117
sgRNA knockout: sgATF6, 100 nM | 127
sgRNA knockout: sgATF6, 1000 nM | 101
sgRNA knockout: sgATF6, 10000 nM | 105
sgRNA knockout: sgATG7, 10 nM | 118
sgRNA knockout: sgATG7, 100 nM | 99.4
sgRNA knockout: sgATG7, 1000 nM | 105
sgRNA knockout: sgATG7, 10000 nM | 82.9
sgRNA knockout: sgERN1, 10 nM | 107
sgRNA knockout: sgERN1, 100 nM | 94.9
sgRNA knockout: sgERN1, 1000 nM | 101
sgRNA knockout: sgERN1, 10000 nM | 101
sgRNA knockout: sgHSF1, 10 nM | 112
sgRNA knockout: sgHSF1, 100 nM | 105.4
sgRNA knockout: sgHSF1, 1000 nM | 108
sgRNA knockout: sgHSF1, 10000 nM | 99
sgRNA knockout: sgHSF2, 10 nM | 104
sgRNA knockout: sgHSF2, 100 nM | 115
sgRNA knockout: sgHSF2, 1000 nM | 133
sgRNA knockout: sgHSF2, 10000 nM | 94.9
sgRNA knockout: sgKEAP1, 10 nM | 107
sgRNA knockout: sgKEAP1, 100 nM | 93.5
sgRNA knockout: sgKEAP1, 1000 nM | 102.7
sgRNA knockout: sgKEAP1, 10000 nM | 101
sgRNA knockout: sgNFE2L2, 10 nM | 114
sgRNA knockout: sgNFE2L2, 100 nM | 113
sgRNA knockout: sgNFE2L2, 1000 nM | 110
sgRNA knockout: sgNFE2L2, 10000 nM | 92.3
sgRNA knockout: sgSLC35F2, 10 nM | 117
sgRNA knockout: sgSLC35F2, 100 nM | 97.7
sgRNA knockout: sgSLC35F2, 1000 nM | 112
sgRNA knockout: sgSLC35F2, 10000 nM | 100
sgRNA knockout: sgXBP1, 10 nM | 110
sgRNA knockout: sgXBP1, 100 nM | 105
sgRNA knockout: sgXBP1, 1000 nM | 113
sgRNA knockout: sgXBP1, 10000 nM | 95.4

CNC(=O)c1cc(Oc2ccc(NC(=O)Nc3ccc(Cl)c(C(F)(F)F)c3)cc2)ccn1 [Sorafenib]
Settings | relative cell number
sgRNA knockout: sgATF3, 10 nM | 105.6
sgRNA knockout: sgATF3, 100 nM | 111
sgRNA knockout: sgATF3, 1000 nM | 105
sgRNA knockout: sgATF3, 10000 nM | 43.5
sgRNA knockout: sgATF4, 10 nM | 101
sgRNA knockout: sgATF4, 100 nM | 113
sgRNA knockout: sgATF4, 1000 nM | 94.6
sgRNA knockout: sgATF4, 10000 nM | 50
sgRNA knockout: sgATF6, 10 nM | 119
sgRNA knockout: sgATF6, 100 nM | 113
sgRNA knockout: sgATF6, 1000 nM | 112
sgRNA knockout: sgATF6, 10000 nM | 56.9
sgRNA knockout: sgATG7, 10 nM | 95.1
sgRNA knockout: sgATG7, 100 nM | 110.8
sgRNA knockout: sgATG7, 1000 nM | 113
sgRNA knockout: sgATG7, 10000 nM | 47.1
sgRNA knockout: sgERN1, 10 nM | 84.4
sgRNA knockout: sgERN1, 100 nM | 107
sgRNA knockout: sgERN1, 1000 nM | 109
sgRNA knockout: sgERN1, 10000 nM | 55.9
sgRNA knockout: sgHSF1, 10 nM | 97.6
sgRNA knockout: sgHSF1, 100 nM | 104
sgRNA knockout: sgHSF1, 1000 nM | 107
sgRNA knockout: sgHSF1, 10000 nM | 52.8
sgRNA knockout: sgHSF2, 10 nM | 90.1
sgRNA knockout: sgHSF2, 100 nM | 117
sgRNA knockout: sgHSF2, 1000 nM | 106
sgRNA knockout: sgHSF2, 10000 nM | 59.2
sgRNA knockout: sgKEAP1, 10 nM | 99.7
sgRNA knockout: sgKEAP1, 100 nM | 110
sgRNA knockout: sgKEAP1, 1000 nM | 120
sgRNA knockout: sgKEAP1, 10000 nM | 45.6
sgRNA knockout: sgNFE2L2, 10 nM | 82.3
sgRNA knockout: sgNFE2L2, 100 nM | 101
sgRNA knockout: sgNFE2L2, 1000 nM | 108
sgRNA knockout: sgNFE2L2, 10000 nM | 49.7
sgRNA knockout: sgSLC35F2, 10 nM | 95.2
sgRNA knockout: sgSLC35F2, 100 nM | 103
sgRNA knockout: sgSLC35F2, 1000 nM | 102
sgRNA knockout: sgSLC35F2, 10000 nM | 54.8
sgRNA knockout: sgXBP1, 10 nM | 89.4
sgRNA knockout: sgXBP1, 100 nM | 102
sgRNA knockout: sgXBP1, 1000 nM | 106
sgRNA knockout: sgXBP1, 10000 nM | 53.4
